Plain letter strings leave the end groups untold.
Assay: peptide made by a vendor
Conditions: whole synthesis, TFA salt

## APFLLEDPANQFLRLKR
  final purity (method not given): 99.9%

Reference: patent US20230041692A1 (THE UNIVERSITY OF SYDNEY, priority 2019, published 2023)
